# PubChem BioAssay AID270 (DTP/NCI, 2004)
# The list does not hold the whole screen: its compounds were picked by chemical class. Not every dose and run of a compound is shown. T/C is the treated group as % of the vehicle group. Some entries show no survivor count and are marked so; the dose need not have been tolerated. Schedules are NCI's codes, read here as Q, the interval in days (D) or hours (H), X, the number of doses. Some entries hold several experiments; the values are given in rising order. Where survival is the endpoint, this PubChem deposit counts one and a half times the control or more as active, and values a quarter to a half above the control carry no call in these data; other NCI protocols may use other cut-offs.
# Tested on: BDF1 mice, s.c. Lewis lung carcinoma, T/C %
# Test: NCI In Vivo Anticancer Drug Screen. Data for tumor model Lewis Lung Carcinoma (subcutaneous) in B6D2F1 (BDF1) mice
# Conditions: vehicle: saline
# Experimental: The antitumor activity of compounds was measured in mice bearing transplantable tumors. Survival or tumor size were measured and the results are expressed as the measurement made in the treated group (T) divided by the measurement made in the vehicle treated control group (C). The tumor model used in this assay is Lewis Lung Carcinoma (subcutaneous) in B6D2F1 (BDF1) mice
structure (smiles),measurement,setting,value
CN(CCCl)CCCl,T/C,"T/C endpoint: mean tumor weight, dose: 0.15 mg/kg/injection, schedule: Q01DX011 (ip), evaluation day not shown, higher T/C = larger tumour",103 % of control [survivor count not shown]
same,T/C,"T/C endpoint: mean tumor weight, dose: 0.25 mg/kg/injection, schedule: Q01DX011 (ip), evaluation day not shown, higher T/C = larger tumour",70 % of control [survivor count not shown]
same,T/C,"T/C endpoint: mean tumor weight, dose: 0.3 mg/kg/injection, schedule: Q01DX011 (ip), evaluation day not shown, higher T/C = larger tumour",65 % of control [survivor count not shown]
same,T/C,"T/C endpoint: mean tumor weight, dose: 0.45 mg/kg/injection, schedule: Q01DX011 (ip), evaluation day not shown, higher T/C = larger tumour",90 % of control [survivor count not shown]
same,T/C,"T/C endpoint: mean tumor weight, dose: 0.5 mg/kg/injection, schedule: Q01DX011 (ip), evaluation day not shown, higher T/C = larger tumour",47 [survivor count not shown] and 55 % of control [survivor count not shown]
same,T/C,"T/C endpoint: median survival time, dose: 0.1 mg/kg/injection, schedule: Q01DX009 (ip), higher T/C = longer survival",104 [survivor count not shown] and 123 % of control [survivor count not shown]
same,T/C,"T/C endpoint: median survival time, dose: 0.19 mg/kg/injection, schedule: Q01DX009 (ip), higher T/C = longer survival",110 [survivor count not shown] and 114 % of control [survivor count not shown]
same,T/C,"T/C endpoint: median survival time, dose: 0.19 mg/kg/injection, schedule: Q04DX003 (ip), higher T/C = longer survival",135 % of control [survivor count not shown]
same,T/C,"T/C endpoint: median survival time, dose: 0.38 mg/kg/injection, schedule: Q01DX001 (ip), higher T/C = longer survival",92 % of control [survivor count not shown]
same,T/C,"T/C endpoint: median survival time, dose: 0.38 mg/kg/injection, schedule: Q01DX009 (ip), higher T/C = longer survival",131 [survivor count not shown] and 133 % of control [survivor count not shown]
same,T/C,"T/C endpoint: median survival time, dose: 0.38 mg/kg/injection, schedule: Q04DX003 (ip), higher T/C = longer survival",90 % of control [survivor count not shown]
same,T/C,"T/C endpoint: median survival time, dose: 0.75 mg/kg/injection, schedule: Q01DX001 (ip), higher T/C = longer survival",115 % of control [survivor count not shown]
same,T/C,"T/C endpoint: median survival time, dose: 0.75 mg/kg/injection, schedule: Q01DX009 (ip), higher T/C = longer survival",109 [survivor count not shown] and 135 % of control [survivor count not shown]
same,T/C,"T/C endpoint: median survival time, dose: 0.75 mg/kg/injection, schedule: Q04DX003 (ip), higher T/C = longer survival",106 % of control [survivor count not shown]
same,T/C,"T/C endpoint: median survival time, dose: 1.5 mg/kg/injection, schedule: Q01DX001 (ip), higher T/C = longer survival",116 % of control [survivor count not shown]
same,T/C,"T/C endpoint: median survival time, dose: 1.5 mg/kg/injection, schedule: Q04DX003 (ip), higher T/C = longer survival",107 % of control [survivor count not shown]
same,T/C,"T/C endpoint: median survival time, dose: 3.0 mg/kg/injection, schedule: Q01DX001 (ip), higher T/C = longer survival",94 % of control [survivor count not shown]
